From US20180037611A1
Results are given in words; binding and its absence hold for the method and conditions named.

Molecular target: recombinant soluble DENV envelope protein (standard ELISA) (dengue virus (serotype not given))
Test: standard ELISA on recombinant sE

B1: 747(4)A11 (antibody, V domains shown)
VH: EVQLVESGGGLVRPGGSLRLSCAASGFSYSNHWMHWVRQAPGKGLVWVSRINSDGSTRNYADFVKGRFTISRDNAENTLYLEMNSLTADDTAVYYCVRDGVRFYYDSTGYYPDSFFKYGMDVWGQGTTVTV
VL: QSVLTQPASVSGSPGQSITISCTGTSSNADTYNLVSWYQQRPGKAPKLMIYEGTKRPSGVSNRFSASKSATAASLTISGLQPEDEADYYCCSYATSRTLVFGGGTKLTVV
binding: no binding
